Columns and labels:
[1] = p-Cyanophenylalanine fluorescence kinetic assay of amyloid formation by the peptides; format: physicochemical; conditions: peptide alone, pH 7.4
Source text: Wild-type IAPP, IAPP-Y37FC≡N and a G-FCN-A-A tetrapeptide were synthesized and the disulfide bond in IAPP was formed using dimethyl sulfoxide (DMSO) based oxidation as described in Abedini et al., Analytical Biochemistry 351, 181-186 (2006) incorporated herein by reference. The synthesis of peptides is well known in the art. Synthesizers such as the Applied Biosystems 433A are commercially available with ample instructions for use and are generally accessible to practitioners in the art. Fmoc-4-cyanoPhe was obtained from NovaBiochem. Peptides were purified via reverse phase HPLC and the identities confirmed by MALDI mass spectroscopy. Thioflavin-T fluorescence experiments were performed with a Jobin Yvon Horiba fluorescence spectrophotometer or with an Applied Phototechnology fluorescence spectrophotometer. P-cyanoPhe fluorescence was excited at 240 nm and detected at 296 nm with instrument slit widths of 10 nm on an Applied Photon Technologies fluorimeter. […]
Fibrillization reactions were initiated by diluting the stock 50-fold into buffered (20 mM Tris-HCl, pH 7.4) aqueous solution. […] The spectrum is the average of three repeats in a 0.1 cm quartz cuvette and recorded over a range of 190-250 nm, at 1 nm intervals, with an averaging time of three seconds per scan. […]

[2] = TEM of fibrils formed by the peptides; format: physicochemical; conditions: 2% HFIP, 20 mM Tris-HCl, pH 7.4

Substance	time course of p-cyanophenylalanine fluorescence compared with thioflavin-T experiment [1]	TEM images / morphology of amyloid fibrils compared with hIAPP [2]
KCNTATCATQRLANFC≡NNLVHSSNNFGAILSSTNVGSNTY (KCNTATCATQRLANFLVHSSNNFGAILSSTNVGSNTY; p-cyanophenylalanine at position 15 (replaces Phe-15; written as F in the residues); disulfide bond linking residues 2 and 7 and amidated C-terminus as told for hIAPP peptides) [hIAPP-F15FC≡N, human IAPP with p-cyanophenylalanine at position-15]	identical	the same
KCNTATCATQRLANFLVHSSNNFGAILSSTNVGSNTFC≡N (p-cyanophenylalanine at position 37 (replaces Tyr-37; written as F in the residues); disulfide bond linking residues 2 and 7; amidated C-terminus) [hIAPP-Y37FC≡N, human IAPP with Tyr-37 replaced with p-cyanoPhe]	identical	indistinguishable

Reference: patent US20100021390A1, “Fluorescent Analogs Of The Islet Amyloid Polypeptide” (The Research Foundation of State University of New York, priority 2008, published 2010)
